Source: PubChem BioAssay AID504444 (National Center for Advancing Translational Sciences (NCATS), 2011)
Among all 360,000 compounds or so, about 7,500 (2.1%) were called active. This list was built around the results that the source calls inconclusive (neither active nor inactive); the mix of calls is not that of the screen. Calls come from the whole dose curve; as a rule, active = well fitted inhibition curve with a large enough effect; inconclusive = small, poorly fitted or top-dose-only effect, or effect the other way; inactive = flat fitted curve, though single readings scatter. Potencies beside an inconclusive call are fits to weak or partial responses and may not hold up.
Potency is the fitted concentration of half-maximal effect.

Test: Nrf2 qHTS screen for inhibitors; note: nearly all actives have a fitted effect of over 60% in size
Settings: A549 ARE-Fluc reporter, luciferase luminescence, 18-24 h; series mostly up to 46 µM
Summary of the method: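 Nrf2 function is reported as luminescence of an ARE-controlled luciferase in A549 cells. Compounds were tested at several concentrations, and a CellTiter-Fluor read on the same wells flagged cytotoxicity.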
For O=C(NNC(=S)NC1CCCCC1)c1ccc(Cl)s1, the Potency was inconclusive: 3.66 µM [activator, single point].
With Cc1ccc(NC(=O)CCS(=O)(=O)c2ccc3c(c2)oc(=O)n3C)c(Br)c1 the Potency was inconclusive: 23.1 µM [activator, partial curve].
In the case of Cc1cc(C)nc(NC(=O)c2cc(-c3ccc4c(c3)OCO4)nc3ccccc23)c1, the Potency is reported as “inactive”.
With COc1ccccc1OCC(=O)NC1CCCCCC1 the Potency was inconclusive: 29.1 µM [falling, single point].
For COc1cccc(C(=O)Nc2ccccc2)c1, the Potency was inconclusive: 2.91 µM [activator, full curve].
With COc1ccccc1NC(=O)COc1cccc2c1CCNC2=O the Potency was inconclusive: 5.17 µM [falling, partial curve].
For CCOc1cc(S(=O)(=O)NCCc2c(C)[nH]c3ccc(C)cc23)ccc1Br, the Potency was “inactive”.
With Cc1ccc(S(=O)(=O)c2nc(-c3cccs3)oc2NCc2cccnc2)cc1 the Potency was “inactive”.
With CC(=O)c1cccc(NS(=O)(=O)c2cccc(S(=O)(=O)c3ccc(Br)cc3)c2)c1 the Potency was inconclusive: 18.4 µM [falling, single point].
With COc1ccc(-c2nc(CSCC(=O)N3CCN(c4ccccc4)CC3)c(C)o2)cc1 the Potency was active: 2.59 µM.
For Cc1cc(C(=O)N/N=C/c2ccc[nH]2)n[nH]1, the Potency was inconclusive: 20.6 µM [activator, partial curve, poor fit].
In the case of COc1ccc(C2Nc3ccccc3C(=O)N2Cc2ccco2)cc1COc1c(C)cccc1C (centres undefined), the Potency is reported as inconclusive: 29.1 µM [falling, single point].
In the case of O=c1[nH]c(SCc2c(F)cccc2Cl)nc2c1CCCC2, the Potency is reported as “inactive”.
With Clc1ccc(C=NN2CCCCCC2)cc1 the Potency was inconclusive: 6.51 µM [activator, partial curve].
For Cc1ccccc1-c1nnn(Cc2cccc(S(=O)(=O)N3CCOCC3)c2)n1, the Potency was inconclusive: 18.4 µM [falling, single point].
In the case of N#C/C(=C\c1ccc([N+](=O)[O-])o1)c1nc2ccccc2[nH]1, the Potency is reported as inconclusive: 5.8 µM [activator, full curve, poor fit].
For Cc1cc(C)n2nc(C(=O)N/N=C/c3c4ccccc4cc4ccccc34)nc2n1, the Potency was inconclusive: 29.1 µM [falling, single point].
With O=c1c(Cl)c(N/N=C/c2ccc(Br)cc2)cnn1-c1ccccc1 the Potency was inconclusive: 29.1 µM [falling, single point].
In the case of Nc1ncc([N+](=O)[O-])c(N2CCCCCC2)n1, the Potency is reported as inconclusive: 18.4 µM [falling, partial curve].
With Fc1ccc2cc(-c3ccccc3F)ncc2c1 the Potency was inconclusive: 14.6 µM [activator, single point].
For CCO[C@@H]1OC(C(=O)NCc2ccccc2)=C[C@H](C)[C@H]1CCCO, the Potency was “inactive”.
For CCOCCCn1c(=N)c(S(=O)(=O)c2ccc(Cl)cc2)cc2c(=O)n3cccc(C)c3nc21, the Potency was “inactive”.
With CN(C)c1oc(-c2ccccc2Cl)nc1P(=O)(c1ccccc1)c1ccccc1 the Potency was inconclusive: 18.4 µM [falling, single point].
For Clc1ccc(/C=N/NC2=Nc3cccc4cccc2c34)cc1, the Potency was inconclusive: 32.6 µM [falling, single point].
For O=[S+]([O-])(c1ccc(N2CCOCC2)nc1)N1CCN([S+](=O)([O-])c2c(F)cccc2F)CC1, the Potency was “inactive”.
For CC1=CC(c2ccccc2)=Nc2ccc(C)cc2N1, the Potency was inconclusive: 3.26 µM [activator, full curve].
For COc1cc(NC(=O)C(Cc2ccccc2)n2cccc2)cc(OC)c1 (centres undefined), the Potency was inconclusive: 29.1 µM [falling, single point].
With O=C(OCC#CCSc1nnc(-c2cccc3ccccc23)o1)c1ccc(OC(F)(F)F)cc1 the Potency was “inactive”.
With CCOC(=O)N1CCN(C(=O)c2ccc3c(c2)N(Cc2ccc(C)cc2)CCS3)CC1 the Potency was inconclusive: 23.1 µM [falling, partial curve, poor fit].
For CCc1nn(CC(=O)NC(C)CC)c(=O)c2cc3occc3n12 (centres undefined), the Potency was inconclusive: 14.6 µM [activator, partial curve, poor fit].
In the case of COc1ccc(NS(=O)(=O)c2ccc(C)c(C(=O)N(C)CCc3ccc(OC)c(OC)c3)c2)cc1, the Potency is reported as active: 20.6 µM.
For CC1(C)CC=CC(COC(=O)c2ccccc2C(=O)O)C1 (centres undefined), the Potency was inconclusive: 16.4 µM [activator, single point].
In the case of Cc1ccc(S(=O)(=O)CCc2nnc(NC(=O)CCl)s2)cc1C, the Potency is reported as inconclusive: 13 µM [activator, single point].
With O=C1CCC(c2ccc3c(c2)CCC3)=NN1 the Potency was “inactive”.
In the case of c1ccc2c(CSCc3nc4ccccc4[nH]3)cccc2c1, the Potency is reported as inconclusive: 9.2 µM [falling, partial curve].
In the case of COC(=O)c1nn(-c2ccccc2)c(Sc2ccc(Br)cc2)c1/C=N/O, the Potency is reported as inconclusive: 14.6 µM [falling, partial curve].
In the case of O=C(O)c1ccc(-c2ccc(O)c(F)c2)cc1, the Potency is reported as inconclusive: 0.651 µM [falling, full curve, poor fit].
In the case of O=C(N/N=C/c1ccccc1OCc1ccccc1)c1cccs1, the Potency is reported as “inactive”.
With CCn1c(CN2CCN(c3ccc(OC)cc3)CC2)nc2cc(S(=O)(=O)N(C)C)ccc21 the Potency was inconclusive: 23.1 µM [falling, single point].
For Cc1cccc2sc(N(CCN(C)C)C(=O)/C=C/c3cccs3)nc12, the Potency was “inactive”.
For CC1(C)Cc2c(cnn2-c2ccc(F)cc2)C(NC(=O)CCN2CCCC2=O)C1 (centres undefined), the Potency was inconclusive: 16.4 µM [activator, single point].
With CC(=O)c1c(C)oc2ccc(NS(=O)(=O)c3ccc(O)c(C(=O)O)c3)cc12 the Potency was “inactive”.
For COc1cccc(CNC(=O)Cn2ncn3cccc3c2=O)c1OC, the Potency was inconclusive: 18.4 µM [activator, partial curve].
In the case of Cc1cccc(OCC(O)Cn2ccnc2C)c1 (centres undefined), the Potency is reported as “inactive”.
With Cc1cccc(NC(=S)Nc2ccc(Oc3ccccc3)cc2)n1 the Potency was inconclusive: 20.6 µM [falling, single point].
With CCn1nc(C)cc1C(=O)N1CCCC(C(=O)c2cccc(OC)c2)C1 (centres undefined) the Potency was inconclusive: 23.1 µM [falling, partial curve, poor fit].
In the case of CCN(Cc1ccccc1)c1ccc(/C=N/N=C(N)N)cc1, the Potency is reported as “inactive”.
For O=c1c2oc3ccccc3c2n(Cc2cccc(F)c2)c(=O)n1Cc1ccc2c(c1)OCO2, the Potency was “inactive”.
In the case of CCCCNc1cc(C)nc(NCc2ccccc2)n1, the Potency is reported as active: 18.4 µM.
With COC(=O)c1cccc(CN2C(=O)SC(Nc3ccc(C)cc3)C2=O)c1 (centres undefined) the Potency was “inactive”.
In the case of COc1ccc(-c2nn(-c3ccccc3)cc2/C=C/C(=O)OCC(=O)Nc2ccccc2C#N)cc1, the Potency is reported as inconclusive: 4.11 µM [falling, full curve, poor fit].
For Cc1c(C(=O)OC(C)C)sc(NC(=O)c2cccnc2)c1C#N, the Potency was inconclusive: 29.1 µM [falling, single point].
With COc1ccccc1NC(=O)C(=O)NCC(c1cccnc1)N1CCc2ccccc2C1 (centres undefined) the Potency was inconclusive: 18.4 µM [activator, single point].
With O=C1CCCc2nc(N3CCc4ccccc43)ncc21 the Potency was inconclusive: 9.2 µM [activator, partial curve].
With N/C(=N\c1nc2c(c(=O)[nH]1)CCCC2)Nc1ccc(Oc2ccccc2)cc1 the Potency was inconclusive: 8.2 µM [falling, partial curve].
For Cc1cc(C)c(C)c(/C=C(/C#N)C(N)=S)c1C, the Potency was inconclusive: 25.9 µM [falling, single point].
With Cc1ccc(-c2cc(C(F)F)n3ncc(C(=O)N4CCN(c5cccc(C)c5C)CC4)c3n2)cc1 the Potency was inconclusive: 23.1 µM [falling, partial curve].
For Cc1ccc(C(=O)NNc2c3ccccc3nc3ccccc23)cc1, the Potency was inconclusive: 32.6 µM [falling, single point].
For O=C(NCCCO)C(=O)Nc1cc2c3c(c1)CCC(=O)N3CCC2, the Potency was inconclusive: 29.1 µM [activator, single point].
In the case of O=C(Cc1csc(Nc2nc(=S)[nH]c3ccccc23)n1)NCCCN1CCN(c2ccccc2F)CC1, the Potency is reported as inconclusive: 18.4 µM [falling, single point].
In the case of CCN(CC)C(=O)Cn1cnc2sc(C(=O)Nc3cc(OC)c(OC)c(OC)c3)c(C)c2c1=O, the Potency is reported as inconclusive: 8.2 µM [falling, partial curve, poor fit].
In the case of O=C1CCCN1c1ccc(S(=O)(=O)Nc2ccc3c(c2)OCCO3)cc1, the Potency is reported as inconclusive: 6.51 µM [falling, partial curve, poor fit].
In the case of O=C(NCC(=O)N(c1ccc(Cl)cc1)C(C(=O)NC1CCCC1)c1cccnc1)c1ccco1 (centres undefined), the Potency is reported as “inactive”.
For O=C(Nc1ccccc1)c1ccc(CN2CCc3ccccc3C2)cc1, the Potency was “inactive”.
In the case of COC(=O)c1ccccc1NC(=O)c1cc2ccccc2o1, the Potency is reported as inconclusive: 5.8 µM [activator, partial curve, poor fit].
In the case of Cc1cc(C[n+]2ccccc2)c2nsnc2c1, the Potency is reported as inconclusive: 3.66 µM [falling, full curve].
In the case of CCc1nnc(NC(=O)c2sc3nc4c(cc3c2N)CCCCC4)s1, the Potency is reported as inconclusive: 32.6 µM [activator, partial curve, poor fit].
For O=C(CN1c2ccccc2S(=O)(=O)c2ccccc21)Nc1cccc(C(F)(F)F)c1, the Potency was inconclusive: 10.3 µM [falling, partial curve, poor fit].
In the case of CC(C)(C)OC(=O)N1C=CCC1CN1C(=O)COCC1=O (centres undefined), the Potency is reported as inconclusive: 20.6 µM [activator, partial curve, poor fit].
